Assay results as given in patent US10710978B2, “STK4 inhibitors for treatment of hematologic malignancies” (Dana-Farber Cancer Institute, Inc., priority 2015, dated 2020).
At least one compound was matched to its structure with a doubt left.

Chains of the proteins cited; added tags and fusions are not shown. Lines headed by an entry give the natural chain unless they say otherwise; changes in a name come on top.
UniProt Q9Y6E0: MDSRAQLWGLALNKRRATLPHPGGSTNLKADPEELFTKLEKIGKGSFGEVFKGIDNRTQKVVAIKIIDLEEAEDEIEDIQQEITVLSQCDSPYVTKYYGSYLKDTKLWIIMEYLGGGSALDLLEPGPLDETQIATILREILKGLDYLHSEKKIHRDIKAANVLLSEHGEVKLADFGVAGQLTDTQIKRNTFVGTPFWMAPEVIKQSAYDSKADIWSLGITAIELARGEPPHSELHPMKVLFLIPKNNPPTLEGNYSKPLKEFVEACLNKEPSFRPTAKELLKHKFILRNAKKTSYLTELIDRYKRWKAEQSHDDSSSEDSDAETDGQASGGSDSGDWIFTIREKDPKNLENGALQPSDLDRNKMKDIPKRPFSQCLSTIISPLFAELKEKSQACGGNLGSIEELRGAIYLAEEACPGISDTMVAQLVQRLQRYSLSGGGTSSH
UniProt Q13188: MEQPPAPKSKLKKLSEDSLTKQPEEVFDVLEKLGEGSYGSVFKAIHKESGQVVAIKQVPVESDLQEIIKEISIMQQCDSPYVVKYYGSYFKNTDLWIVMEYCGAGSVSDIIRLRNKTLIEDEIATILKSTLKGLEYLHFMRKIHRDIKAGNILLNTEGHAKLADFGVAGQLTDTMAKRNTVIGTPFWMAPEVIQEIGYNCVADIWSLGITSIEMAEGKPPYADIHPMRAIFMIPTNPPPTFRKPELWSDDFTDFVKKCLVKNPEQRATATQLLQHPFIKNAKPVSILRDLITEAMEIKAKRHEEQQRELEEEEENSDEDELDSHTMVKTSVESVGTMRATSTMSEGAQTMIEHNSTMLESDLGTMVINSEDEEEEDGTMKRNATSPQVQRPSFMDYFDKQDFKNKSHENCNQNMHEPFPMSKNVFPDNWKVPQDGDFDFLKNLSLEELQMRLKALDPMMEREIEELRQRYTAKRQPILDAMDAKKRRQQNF
UniProt Q9P289: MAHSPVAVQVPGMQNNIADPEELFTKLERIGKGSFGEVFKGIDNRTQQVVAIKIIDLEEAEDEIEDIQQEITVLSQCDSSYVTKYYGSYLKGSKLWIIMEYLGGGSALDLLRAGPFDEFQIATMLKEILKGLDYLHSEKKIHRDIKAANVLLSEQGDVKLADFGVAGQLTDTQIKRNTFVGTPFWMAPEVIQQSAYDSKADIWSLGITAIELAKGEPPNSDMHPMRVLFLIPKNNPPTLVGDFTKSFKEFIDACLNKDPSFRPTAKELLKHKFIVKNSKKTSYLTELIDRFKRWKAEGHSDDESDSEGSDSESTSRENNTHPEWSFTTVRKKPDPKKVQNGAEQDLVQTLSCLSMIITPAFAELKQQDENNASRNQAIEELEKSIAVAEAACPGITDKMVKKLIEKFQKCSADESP

Key:
Test in all cases: Z-lyte biochemical IC50 assay (Invitrogen)
Settings in all cases: ATP concentration matched the Km
STK24 (MST3) = STK24 (MST3) (Homo sapiens (Human), UniProt Q9Y6E0)
Method: (§1) STK4 (MST1), STK3 (MST2); STK24 (MST3) and MST4 Assays
(§2) Biochemical IC50s were measured at Invitrogen using Z-lyte technology. Briefly, for STK4, the 2×STK4 (MST1)/Ser/Thr 07 mixture was prepared in 50 mM HEPES pH 7.5, 0.01% BRIJ35, 10 mM MgCl2, 1 mM EGTA. The final 10 μL Kinase Reaction consisted of 6.25-160 ng STK4 (MST1) and 2 μM Ser/Thr 07 in 50 mM HEPES pH 7.5, 0.01% BRIJ-35, 10 mM MgCl2, 1 mM EGTA. After the 1 hour Kinase Reaction incubation, 5 μL of a 1:100000 dilution of Development Reagent A was added. Compounds were screened in a 10 point titration with 3-fold serial dilutions starting at a concentration of 10 μM. The biochemical IC50s against other STK family members were measured similarly. The ATP concentration used matched the Km for each kinase.

STK3 (MST2) = STK3 (MST2) (Homo sapiens (Human), UniProt Q13188)
Method: as §1, §2

MST4 = MST4 (Homo sapiens (Human), UniProt Q9P289)
Method: as §1, §2

Nc1ncc(-c2scnc2Cl)cc1-c1ccc2c(c1)CCNC2=O [Compound I-77, 6-(2-amino-5-(4-chlorothiazol-5-yl)pyridin-3-yl)-3,4-dihydroisoquinolin-1(2H)-one]
−: STK24 (MST3) IC50 (nM) (STK24 (MST3)) | STK3 (MST2) IC50 (nM) (STK3 (MST2)) | MST4 IC50 (nM) (MST4)
